This series can be described thus: general procedure: solution-phase peptide synthesis; HATU/DIPEA. The conditions noted are these: late stage modification step.

For “(S)-11-benzyl-1-(9H-fluoren-9-yl)-20,20-dimethyl-3,6,9,12,15-pentaoxo-2,18-dioxa-4,7,10,13,16-pentaazahenicosan-21-oic acid”, the step yield was 84.8% yield.

The substance “Benzyl(S)-11-benzyl-1-(9H-fluoren-9-yl)-20,20-dimethyl-3,6,9,12,15-pentaoxo-2,18-dioxa-4,7,10,13,16-pentaazahenicosan-21-oate” returned a step yield of 29.2% yield.

Values taken from US20250312473A1 (BEONE MEDICINES I GMBH, priority 2022, published 2025).
